In patent publication US20250137008A1 (UNIVERSITY OF GLASGOW, published 2025):
Results are given in words; binding and its absence hold for the method and conditions named. Some entries that bind do so weakly or less than the wild type.

Target: gVSD^PNNP N-terminus (soluble) (Arabidopsis thaliana)
Test: gel filtration of soluble N-termini (self-association)

binding: binds
B1: gVSD^PNNP N-terminus (soluble) (protein)
chain: MGRLRRRQEIIDHEEEESNDDVSSDDGDLSLAKTFDWLKSSKDDDIKTKGDNKYDYIIDPKNRWYKAWE
